From patent US6031084A, “Azoamide compound” (Wako Pure Chemical Industries, Ltd., priority 1998, dated 2000)

Experiment: Polymerization rate of acrylamide with the azo compound as polymerization initiator
Settings: acrylamide in distilled water, 80° C., nitrogen
Protocol: Acrylamide(20 g) was dissolved in 380 g of distilled water and 14.0×10^5 mol of Present compound 1 obtained in Example 1 was added thereto as a polymerization initiator. The mixture was heated at 80° C. with stirring under nitrogen gas atmosphere to cause polymerization reaction. After the polymerization was started, samplings of the reaction solution were conducted at predetermined intervals, and methanol was added to the samples to form precipitates of the produced polymer, which were recovered and dried. The polymerization rates at each sampling time were measured.
The polymerization rates were measured by same measurement as Example 3 except for using Known compound 1, Known compound 2 or Known compound 3 in place of using Present compound 1.

Row | SMILES | Polymerization rate at polymerization time 0.5 H [%] | Polymerization rate at polymerization time 1.0 H [%] | Polymerization rate at polymerization time 1.5 H [%] | Polymerization rate at polymerization time 2.0 H [%] | Polymerization rate at polymerization time 3.0 H [%] | Polymerization rate at polymerization time 4.0 H [%]
1 | CC(C)(N=NC(C)(C)C(=O)NCCO)C(=O)NCCO [Known compound 1, 2,2'-azobis[2-methyl-N-(2-hydroxyethyl)-propionamide]] | 26.9 | 45.9 | 56.0 | 67.6 | 76.2 | 82.1
2 | CC[C@H](CO)NC(=O)C(C)(C)N=NC(C)(C)C(=O)N[C@H](CC)CO [Present compound 1, 2,2'-azobis[N-(butanol-2-yl)-2-methylpropionamide]] | 26.1 | 42.0 | 54.4 | 65.1 | 76.1 | 82.9
3 | CC(C)(N=NC(C)(C)C(=O)NC(CO)(CO)CO)C(=O)NC(CO)(CO)CO [Known compound 2, 2,2'-azobis {2-methyl-N-[1,1-bis(hydroxymethyl)-2-hydroxyethyl]propionamide}] | 14.7 | 31.0 | 35.4 | 43.2 | 55.6 | 66.1
4 | CC(CO)(CO)NC(=O)C(C)(C)N=NC(C)(C)C(=O)NC(C)(CO)CO [Known compound 3, 2,2'-azobis {2-methyl-N-[1,1-bis(hydroxymethyl)ethyl]propionamide}] | 15.7 | 26.9 | 33.6 | 40.6 | 53.8 | 64.2
